Assay results published in PMC5983471 (PLoS ONE, 2018).

Test system: tumor-associated and AR-V transcripts in circulating tumor cells
Assay: AdnaTest qRT-PCR of circulating tumor cells
Format: in vivo, human
Design: key: Tumor-associated transcripts (PCR fragment) are detected by visualization on 2% agarose gel (+/-)
Settings: Day 29; 1000 mg PO TID + enzalutamide; Pt# 19

## O=C(Nc1ccc([N+](=O)[O-])cc1Cl)c1cc(Cl)ccc1O [niclosamide, 2',5-dichloro-4'-nitrosalicylanilide]
  PSMA transcript in CTCs: +
